PubChem BioAssay AID1259254 | NCATS | 2017
Purpose: 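Finding genes that stop cells copying their DNA twice in one cycle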 (primary screen). Cell system: human HCT116 colorectal cancer cells. Reagent: single siRNA against human genes. Duration: 3 days. Measured: 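Nuclei stained with Hoechst and imaged; cell-cycle phase assigned by DNA content; G2 share scaled per plate, non-targeting siRNA 0%, GMNN siRNA 100%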. Scale: G2 robust z-score: higher = more G2 cells, more excess DNA replication. Call rule: 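An siRNA counts as active if its G2 robust z-score lies at least 5 MADs above the screen median; here such calls match roughly 38% of GMNN control or more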.
The deposit covers about 59,000 reagents; below is an unselected part. Of all reagents, about 1,550 (2.6%) are marked active. 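G2 share is only a proxy for re-replication; each gene was hit by three separate siRNAs, and active genes were retested.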 Reagents against one gene are numbered here. Not all columns of the deposit are shown. Not given: the amount of reagent.

target	reagent	G2 robust z-score	call
NEK9	1	-0.509	inactive
NEK9	2	1.71	inactive
NEK9	3	0.0178	inactive
PIEZO1	1	2.01	inactive
PIEZO1	2	3.33	inactive
PIEZO1	3	0.463	inactive
SMOC2	1	-0.348	inactive
SMOC2	2	1.54	inactive
SMOC2	3	-0.441	inactive
ZSWIM3	1	-0.196	inactive
ZSWIM3	2	0.335	inactive
ZSWIM3	3	-0.646	inactive
DCAF8L2	1	-0.201	inactive
DCAF8L2	2	2	inactive
DCAF8L2	3	-0.965	inactive
SLC48A1	1	1.28	inactive
SLC48A1	2	0.449	inactive
SLC48A1	3	5.83	active
ZNF235	1	4.61	inactive
ZNF235	2	1.32	inactive
ZNF235	3	-0.824	inactive
SOWAHA	1	-0.791	inactive
SOWAHA	2	-0.577	inactive
SOWAHA	3	-0.0372	inactive
IL1R2	1	-1.07	inactive
IL1R2	2	8.5	active
IL1R2	3	-0.343	inactive
CERNA2	1	0.306	inactive
CERNA2	2	0.663	inactive
CERNA2	3	-0.83	inactive

Ordered by “G2 robust z-score” (ascending): 4 of the entries above.
target	reagent	G2 robust z-score	call
NEK9	3	0.0178	inactive
NEK9	2	1.71	inactive
PIEZO1	1	2.01	inactive
PIEZO1	2	3.33	inactive
